PubChem BioAssay AID1259254 | NCATS, 2017

- Purpose: 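Finding genes that stop cells copying their DNA twice in one cycle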 (primary screen)
- Cell system: human HCT116 colorectal cancer cells
- Reagent: single siRNA against human genes
- Timing: 3 days
- Measurement: 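Imaged Hoechst DNA stain sorts each cell into a cycle phase by DNA amount; per plate, G2 fraction set to 0% for non-targeting and 100% for GMNN siRNA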
- Direction: G2 robust z-score and G2 cells, % of GMNN control: higher = more G2 cells, more excess DNA replication; raw share of cells in G2: higher = larger share of cells with G2 DNA content
- Rule for the call: 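An siRNA counts as active if its G2 robust z-score lies at least 5 MADs above the screen median; here such calls match roughly 38% of GMNN control or more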
This is an unselected part of about 59,000 reagents. Over the whole deposit, about 1,550 (2.6%) are marked active. 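G2 share is only a proxy for re-replication; each gene was hit by three separate siRNAs, and active genes were retested.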 The raw values are shown without normalisation. Entries without a mark were called inactive. The numbers tell different reagents against one gene apart. The record does not give: the amount of reagent.

target gene	reagent no.	G2 robust z-score	G2 cells, % of GMNN control	raw share of cells in G2 (%)
LINC00921	1	0.477	6.32	5.95
LINC00921	2	-0.541	-0.842	2.72
LINC00921	3	0.212	4.46	4.62
RPS17P10	1	-0.789	-2.59	2.64
RPS17P10	2	0.216	4.49	4.67
RPS17P10	3	-0.272	1.05	3.53
HECW2	1	-0.52	-0.693	4.1
HECW2	2	-0.782	-2.54	4.6
HECW2	3	0.0532	3.34	5.44
ZCCHC9	1	1.28	12	8.09
ZCCHC9	2	-0.316	0.746	3.68
ZCCHC9	3	-0.871	-3.16	1.45
ZNF285	1	0.074	3.49	4.02
ZNF285	2	-0.127	2.07	6.85
ZNF285	3	1.16	11.1	7.13
GARRE1	1	2.25	18.8	13.8
GARRE1	2	-0.615	-1.36	3.38
GARRE1	3	-0.74	-2.24	2.59
FAH	1	0.386	5.68	7.3
FAH	2	3.08	24.7	14.6
FAH	3	1.48	13.4	8.42
NME4	1	-0.585	-1.15	5.02
NME4	2	-0.406	0.114	5.65
NME4	3	-0.772	-2.46	3.16
TEDC2	1	-0.601	-1.26	3.92
TEDC2	2	0.66	7.61	7.63
TEDC2	3	-0.938	-3.64	1.38
KIF14	1	-0.504	-0.577	4.98
KIF14	2	2.02	17.2	9.05
KIF14	3	-0.209	1.5	5.36
BAIAP2	1	1.07	10.5	10.3
BAIAP2	2	-0.446	-0.173	3.79
BAIAP2	3	-0.714	-2.06	5.67
SSTR3	1	1.23	11.6	10
SSTR3	2	-1.4	-6.89	2.11
SSTR3	3	0.503	6.51	5.26
IDO1	1	0.576	7.02	8.36
IDO1	2	0.656	7.58	7.8
IDO1	3	0.0933	3.62	5.53
TUBAL3	1	0.244	4.68	6.52
TUBAL3	2	-0.328	0.659	4.43
TUBAL3	3	0.483	6.37	8.08
SLC9B2	1	0.129	3.87	5.63
SLC9B2	2	-0.876	-3.19	2.09
SLC9B2	3	1.78	15.5	8.2
HBQ1	1	-0.965	-3.82	3.66
HBQ1	2	-1.64	-8.6	2.41
HBQ1	3	-0.688	-1.87	3.51
PKD1L3	1	0.21	4.44	6.69
PKD1L3	2	-0.915	-3.47	3.02
PKD1L3	3	-1.39	-6.81	2.96
LAD1	1	-0.637	-1.51	4.33
LAD1	2	1.3	12.1	9
LAD1	3	2	17	9.51
TYW2	1	1.22	11.5	9.14
TYW2	2	1.35	12.5	11.9
TYW2	3	-0.0616	2.53	5.35
MUC7	1	0.962	9.74	9.11
MUC7	2	0.306	5.12	6.24
MUC7	3	-0.783	-2.54	2.44
CMPK1	1	0.645	7.51	7.92
CMPK1	2	-0.514	-0.651	4.95
CMPK1	3	3.69	28.9	12.9
CHCT1	1	-0.323	0.697	2.02
CHCT1	2	-0.219	1.42	4.66
CHCT1	3	1.87	16.1	8.13
KIZ	1	-1.5	-7.59	1.61
KIZ	2	0.461	6.21	6.71
KIZ	3	-0.923	-3.53	2.01
EN1	1	1.02	10.2	8.93
EN1	2	-0.539	-0.823	4.95
EN1	3	1.21	11.5	7.75
RIDA	1	-0.755	-2.34	4.27
RIDA	2	0.499	6.48	6.65
RIDA	3	-0.294	0.901	3.73
CCDC167	1	-0.781	-2.53	2.7
CCDC167	2	1.28	12	6.97
CCDC167	3	-0.476	-0.383	2.64
ASPA	1	0.217	4.49	7.13
ASPA	2	0.98	9.86	8.4
ASPA	3	-1.05	-4.4	2.27
NRROS	1	2.42	20	14.6
NRROS	2	-0.94	-3.64	3.54
NRROS	3	-0.697	-1.94	3.58
ACAT2	1	-0.116	2.15	4.79
ACAT2	2	2.75	22.3	13
ACAT2	3	5.46 (active)	41.4	18.8

Looked up above.
Under “raw share of cells in G2 (%)”, TUBAL3 #3 shows 8.08
Value of SSTR3 #2 in “G2 robust z-score”: -1.4
PKD1L3 #3, G2 cells, % of GMNN control: -6.81
ASPA #1, raw share of cells in G2 (%): 7.13
RIDA #2, G2 cells, % of GMNN control → 6.48
For “raw share of cells in G2 (%)”, CHCT1 #3 reads 8.13
